{"source": "patent US20170189504A1", "about": "“NOVEL PEPTIDES AND COMBINATION OF PEPTIDES FOR USE IN IMMUNOTHERAPY AGAINST VARIOUS CANCERS” (immatics biotechnologies GmbH, priority 2015, published 2017)", "key": {"HLA-A*02": {"tested_on": "HLA-A*02", "assay": "Identification and relative LC-MS quantitation of HLA-A*02-presented tumor-associated peptides on tissue samples (presentation profiles, Tables 13A, 13B, 15, FIG. 1)", "parameters": "species or system human; key to Presentation score NHL / Presentation score CLL / Presentation score BRCA / Presentation score AML / Presentation score GB / Presentation score NSCLC / Presentation score GBC_CCC / Presentation score UEC / Presentation score MEL / Presentation score OSCAR / Presentation score GC / Presentation score UBC / Presentation score OC / Presentation score RCC / Presentation score CRC / Presentation score PCA / Presentation score HCC / Presentation score PC / Presentation score SCLC: specifically presented on tumors (++++); very highly over-presented on tumors compared to a panel of normal tissues (+++); highly over-presented on tumors compared to a panel of normal tissues (++); over-presented on tumors compared to a panel of normal tissues (+)", "conditions": "for Peptide Presentation on cancer entities: HLA-A*02-binding tumor-associated peptides"}, "source genes (mRNA) [1]": {"tested_on": "source genes (mRNA)", "assay": "Gene and exon expression of source genes, TCGA tumor samples compared with normal tissue samples (Lonsdale, 2013) (Table 17)", "parameters": "species or system human"}, "source genes (mRNA) [2]": {"tested_on": "source genes (mRNA)", "assay": "Expression profiling of source genes by in-house RNASeq of tumor and normal tissues (Table 18, FIG. 2)", "parameters": "species or system human; key: very highly over-expressed in tumors compared to a panel of normal tissues (+++); highly over-expressed in tumors compared to a panel of normal tissues (++); over-expressed in tumors compared to a panel of normal tissues (+)", "conditions": "source gene of peptide"}}, "note": "For some of these results: Expression values are those of the mRNA of the gene that encodes the peptide; a gene is named only where it was looked up."}
{"substance": "150: peptide found in RBM15 (gene looked up) (VLYDRPLKI; listed as Homo sapiens) [compound 150]", "values": [{"measurement": "Presentation score CLL", "setting": "HLA-A*02; HLA-A*02 peptides, chronic lymphocytic leukemia (N = 17) vs panel of normal tissues (N = 262)", "result": "++"}, {"measurement": "Presentation score CRC", "setting": "HLA-A*02; HLA-A*02 peptides, colorectal cancer (N = 28) vs panel of normal tissues (N = 262)", "result": "++"}, {"measurement": "Presentation score OSCAR", "setting": "HLA-A*02; HLA-A*02 peptides, esophageal cancer, including cancer of the gastric-esophageal junction (N = 17) vs panel of normal tissues (N = 262)", "result": "+"}, {"measurement": "Presentation score MEL", "setting": "HLA-A*02; HLA-A*02 peptides, melanoma (N = 7) vs panel of normal tissues (N = 262)", "result": "+"}, {"measurement": "Presentation score NHL", "setting": "HLA-A*02; HLA-A*02 peptides, non-Hodgkin lymphoma (N = 18) vs panel of normal tissues (N = 262)", "result": "+"}, {"measurement": "Peptide Presentation on cancer entities", "setting": "HLA-A*02; Table 13A, cancer entities on which the peptide was found presented", "result": "NSCLC, CLL, OSCAR, OC, MEL, RCC, CRC, NHL"}, {"measurement": "Peptide Presentation on cancer entities", "setting": "HLA-A*02; Table 13B, presentation on additional cancer entities", "result": "HCC, SCLC, UEC, BRCA"}, {"measurement": "Over-expression category of source gene (target coverage), BLCA", "setting": "source genes (mRNA) [1]; BLCA = Bladder urothelial carcinoma (N = 408), same cutoff", "result": "A (>=50% of tumors above the cutoff)"}, {"measurement": "Over-expression category of source gene (target coverage), BRCA", "setting": "source genes (mRNA) [1]; BRCA = Breast cancer (N = 1104), tumors more than 2-fold above highest 75% percentile of normal tissues", "result": "B (>= 20% of tumors above the cutoff, but <50%)"}, {"measurement": "Over-expression category of source gene (target coverage), CHOL", "setting": "source genes (mRNA) [1]; CHOL = Cholangiocarcinoma (N = 36), same cutoff", "result": "B (>= 20% of tumors above the cutoff, but <50%)"}, {"measurement": "Over-expression category of source gene (target coverage), COAD", "setting": "source genes (mRNA) [1]; COAD = Colon and rectal adenocarcinoma (N = 462), same cutoff", "result": "B (>= 20% of tumors above the cutoff, but <50%)"}, {"measurement": "Over-expression category of source gene (target coverage), DLBC", "setting": "source genes (mRNA) [1]; DLBC = Lymphoid neoplasm diffuse large B-cell lymphoma (N = 48), same cutoff", "result": "A (>=50% of tumors above the cutoff)"}, {"measurement": "Over-expression category of source gene (target coverage), ESCA", "setting": "source genes (mRNA) [1]; ESCA = Esophageal cancer (N = 185), same cutoff", "result": "A (>=50% of tumors above the cutoff)"}, {"measurement": "Over-expression category of source gene (target coverage), GBM", "setting": "source genes (mRNA) [1]; GBM = Glioblastoma multiforme (N = 169), same cutoff", "result": "B (>= 20% of tumors above the cutoff, but <50%)"}, {"measurement": "Over-expression category of source gene (target coverage), KIRC", "setting": "source genes (mRNA) [1]; KIRC = Clear cell kidney carcinoma (N = 534), same cutoff", "result": "B (>= 20% of tumors above the cutoff, but <50%)"}, {"measurement": "Over-expression category of source gene (target coverage), KIRP", "setting": "source genes (mRNA) [1]; KIRP = Papillary kidney carcinoma (N = 291), same cutoff", "result": "B (>= 20% of tumors above the cutoff, but <50%)"}, {"measurement": "Over-expression category of source gene (target coverage), LAML", "setting": "source genes (mRNA) [1]; LAML = Acute Myeloid Leukemia (N = 173), same cutoff", "result": "A (>=50% of tumors above the cutoff)"}, {"measurement": "Over-expression category of source gene (target coverage), LGG", "setting": "source genes (mRNA) [1]; LGG = Lower grade glioma (N = 534), same cutoff", "result": "B (>= 20% of tumors above the cutoff, but <50%)"}, {"measurement": "Over-expression category of source gene (target coverage), LIHC", "setting": "source genes (mRNA) [1]; LIHC = Liver hepatocellular carcinoma (N = 374), same cutoff", "result": "B (>= 20% of tumors above the cutoff, but <50%)"}, {"measurement": "Over-expression category of source gene (target coverage), LUAD", "setting": "source genes (mRNA) [1]; LUAD = Lung adenocarcinoma (N = 517), same cutoff", "result": "B (>= 20% of tumors above the cutoff, but <50%)"}, {"measurement": "Over-expression category of source gene (target coverage), LUSC", "setting": "source genes (mRNA) [1]; LUSC = Lung squamous cell carcinoma (N = 503), same cutoff", "result": "B (>= 20% of tumors above the cutoff, but <50%)"}, {"measurement": "Over-expression category of source gene (target coverage), OV", "setting": "source genes (mRNA) [1]; OV = Ovarian serous cystadenocarcinoma (N = 309), same cutoff", "result": "C (>=5% of tumors above the cutoff, but <20%)"}, {"measurement": "Over-expression category of source gene (target coverage), PAAD", "setting": "source genes (mRNA) [1]; PAAD = Pancreatic ductal adenocarcinoma (N = 179), same cutoff", "result": "A (>=50% of tumors above the cutoff)"}, {"measurement": "Over-expression category of source gene (target coverage), PRAD", "setting": "source genes (mRNA) [1]; PRAD = Prostate adenocarcinoma (N = 498), same cutoff", "result": "A (>=50% of tumors above the cutoff)"}, {"measurement": "Over-expression category of source gene (target coverage), READ", "setting": "source genes (mRNA) [1]; READ = Colon and rectal adenocarcinoma (N = 167), same cutoff", "result": "B (>= 20% of tumors above the cutoff, but <50%)"}, {"measurement": "Over-expression category of source gene (target coverage), SKCM", "setting": "source genes (mRNA) [1]; SKCM = Skin cutaneous melanoma (N = 473), same cutoff", "result": "B (>= 20% of tumors above the cutoff, but <50%)"}, {"measurement": "Over-expression category of source gene (target coverage), STAD", "setting": "source genes (mRNA) [1]; STAD = Stomach adenocarcinoma (N = 415), same cutoff", "result": "B (>= 20% of tumors above the cutoff, but <50%)"}, {"measurement": "Over-expression category of source gene (target coverage), UCEC", "setting": "source genes (mRNA) [1]; UCEC = Uterine corpus endometrial carcinoma (N = 546), same cutoff", "result": "A (>=50% of tumors above the cutoff)"}, {"measurement": "Expression score BRCA", "setting": "source genes (mRNA) [2]; BRCA tumors vs panel of normal tissues", "result": "+"}, {"measurement": "Expression score AML", "setting": "source genes (mRNA) [2]; acute myeloid leukemia (N = 11) vs panel of normal tissues", "result": "+"}, {"measurement": "Expression score CLL", "setting": "source genes (mRNA) [2]; chronic lymphocytic leukemia (N = 10) vs panel of normal tissues", "result": "++"}, {"measurement": "Expression score OSCAR", "setting": "source genes (mRNA) [2]; esophageal cancer incl. gastric-esophageal junction (N = 11) vs panel of normal tissues", "result": "+"}, {"measurement": "Expression score GB", "setting": "source genes (mRNA) [2]; glioblastoma (N = 24) vs panel of normal tissues", "result": "+"}, {"measurement": "Expression score NHL", "setting": "source genes (mRNA) [2]; non-Hodgkin lymphoma (N = 10) vs panel of normal tissues", "result": "+"}, {"measurement": "Expression score NSCLC", "setting": "source genes (mRNA) [2]; non-small cell lung cancer (N = 11) vs panel of normal tissues", "result": "+"}, {"measurement": "Expression score OC", "setting": "source genes (mRNA) [2]; ovarian cancer (N = 12) vs panel of normal tissues", "result": "+"}, {"measurement": "Expression score SCLC", "setting": "source genes (mRNA) [2]; small cell lung cancer (N = 10) vs panel of normal tissues", "result": "+"}]}
